From PubChem BioAssay AID493014 (National Center for Advancing Translational Sciences (NCATS), 2011)
The list shows a part of the results. Shown are side measurements of this screen, not its main read-out; they come without a call. Compounds called inactive in the main read-out are mostly missing here. The note in brackets gives the kind of curve behind each potency; many fits are weak.

Assay: qHTS Assay to Find Inhibitors of Chronic Active B-Cell Receptor Signaling
Settings: ABC-DLBCL IkBa-CBG/CBR reporter, luminescence ratio (green luciferase fused to IkBa over red control in TMD8 lymphoma cells), 4 h
Procedure, shortened: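 Doxycycline induced both beetle luciferases in TMD8 lymphoma cells; IKK-driven degradation limits the IkappaBalpha-fused green signal, while red luminescence normalises for cell number and nonspecific effects. Compounds tested up to 46 uM, 4 hrs.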

[1] = measured here: CBR red luminescence, cell number
[2] = measured here: IkBa-CBG green luminescence

Compound | AC50 [1] | AC50 [2]
O=C(OCc1nnc(-c2ccccc2)o1)c1ccco1 | 11.2 µM [rising, single point] | –
CC(C)(C)c1ccc(S(=O)(=O)NCC(=O)N2CCN(C(=O)c3ccco3)CC2)cc1 | 7.31 µM [falling, single point] | –
O=C(O)C1C2C=CC(C2)C1C(=O)Nc1ccc(Cl)c(Cl)c1 (stereo unspecified) | 35.5 µM [rising, single point] | –
O=C(O)COc1ccc(/C=C/c2nc(-c3ccccc3O)n[nH]2)cc1 | 3.98 µM [falling, full curve] | –
Cc1cccc(N2CN=c3s/c(=C\c4ccccn4)c(=O)n3C2)c1 | 11.2 µM [falling, partial curve] | –
Cc1nc2sc(C(c3ccccc3)N3CCOCC3)c(O)n2n1 (stereo unspecified) | 10.3 µM [rising, partial curve] | –
Cc1nc(SCc2ccccc2)nc2c1CCC2 | 3.16 µM [rising, full curve] | –
COC(=O)c1c(C(=O)OC)c2ccncn2c1Cl | 2.06 µM [falling, single point] | –
Cc1ccc(C)c(NC(=O)COC(=O)CNC(=O)c2ccccc2Cl)c1 | 20 µM [rising, single point] | –
CN(C)C(CNC(=O)c1cccc(S(=O)(=O)N2CC3(C)CC2CC(C)(C)C3)c1)c1ccco1 (stereo unspecified) | 0.708 µM [falling, full curve, poor fit] | –
CCSc1nnc(NC(=O)c2ccccc2)s1 | 7.31 µM [falling, partial curve] | –
COc1ccc(C(=O)OCc2c(C)noc2C)cc1 | 1.58 µM [rising, partial curve, poor fit] | –
CCOC(=O)c1ccc(COC(=O)c2cc3ccccc3oc2=O)o1 | 0.92 µM [rising, full curve, poor fit] | –
COc1cc(OC)cc(C(=O)Nc2ccc3nc4n(c(=O)c3c2)CCCC4)c1 | 3.98 µM [falling, full curve] | –
Nc1nc(SCc2ccccc2)ns1 | 23.1 µM [rising, partial curve, poor fit] | –
Cc1noc(C)c1C(=O)OCC(=O)c1cc(C)n(Cc2ccccc2Cl)c1C | 29.1 µM [falling, single point] | –
O=C(Nc1nc2ccc(F)cc2s1)c1cccc(S(=O)(=O)N2CCc3ccccc32)c1 | – | 2.59 µM [rising, full curve, poor fit]
COC(=O)c1ccccc1NC(=O)Cn1nnc(-c2ccc(OC)cc2)n1 | 32.6 µM [falling, partial curve, poor fit] | –
Cc1cc(C(F)(F)F)nn1CC(=O)N1CCOCC1 | 3.66 µM [falling, single point] | –
CCCCNC(=S)NNC(=O)c1csc(C)c1C | 2.31 µM [rising, partial curve] | –
CC1(C)CC(=O)C=C(Nc2ccc(OCC(F)(F)C(F)F)cc2)C1 | 32.6 µM [falling, single point] | –
Cc1ccc(S(=O)(=O)N2CCOCC2)cc1C(=O)Nc1ccc(N2CCCCCC2)cc1 | 10.3 µM [falling, partial curve] | –

Among those listed so far, these have a carbonyl joined to an NH by a bond outside any ring:
Compound | AC50 [1] | AC50 [2]
O=C(O)C1C2C=CC(C2)C1C(=O)Nc1ccc(Cl)c(Cl)c1 (stereo unspecified) | 35.5 µM [rising, single point] | –
Cc1ccc(C)c(NC(=O)COC(=O)CNC(=O)c2ccccc2Cl)c1 | 20 µM [rising, single point] | –
CN(C)C(CNC(=O)c1cccc(S(=O)(=O)N2CC3(C)CC2CC(C)(C)C3)c1)c1ccco1 (stereo unspecified) | 0.708 µM [falling, full curve, poor fit] | –
CCSc1nnc(NC(=O)c2ccccc2)s1 | 7.31 µM [falling, partial curve] | –
COc1cc(OC)cc(C(=O)Nc2ccc3nc4n(c(=O)c3c2)CCCC4)c1 | 3.98 µM [falling, full curve] | –
O=C(Nc1nc2ccc(F)cc2s1)c1cccc(S(=O)(=O)N2CCc3ccccc32)c1 | – | 2.59 µM [rising, full curve, poor fit]
COC(=O)c1ccccc1NC(=O)Cn1nnc(-c2ccc(OC)cc2)n1 | 32.6 µM [falling, partial curve, poor fit] | –
CCCCNC(=S)NNC(=O)c1csc(C)c1C | 2.31 µM [rising, partial curve] | –
Cc1ccc(S(=O)(=O)N2CCOCC2)cc1C(=O)Nc1ccc(N2CCCCCC2)cc1 | 10.3 µM [falling, partial curve] | –

(further entries)

Compound | AC50 [1] | AC50 [2]
Cc1ccc(S(=O)(=O)n2c(CN3CCCC(C)C3)nc3ccccc32)cc1 (stereo unspecified) | 29.1 µM [rising, single point] | –
Cc1nn(Cc2ccc(Cl)cc2Cl)c(Cl)c1/C=C/C(=O)OCC(=O)NCC(F)(F)F | 2.91 µM [rising, single point] | –
CCOc1ccc(N(CC(=O)NCc2ccccc2)S(=O)(=O)c2ccc(C)cc2)cc1 | 20 µM [falling, single point] | –
Cc1cc(C)n(CC(=O)NN)n1 | 11.2 µM [falling, partial curve] | –
CCOC(=O)N1CCN(CCC(=O)c2ccc(OC)cc2)CC1 | 20 µM [falling, partial curve] | –
COc1cccc(/C=N/NC(=O)c2cccc([N+](=O)[O-])c2)c1OS(=O)(=O)c1ccccc1 | 17.8 µM [rising, single point] | –
Cc1ccc(NC(=O)CSc2nc(N)cc(=O)[nH]2)cc1S(=O)(=O)N1CCCCC1 | 23.1 µM [rising, partial curve, poor fit] | –
CCC(=O)N1CCN(c2ccccc2NC(=O)COc2ccccc2Cl)CC1 | 4.61 µM [falling, full curve, poor fit] | –
COc1ccc(C2C=C(c3ccccc3)Nc3nnnn32)cc1 (stereo unspecified) | 11.2 µM [rising, partial curve, poor fit] | –
CCCc1nc2ccccc2c(C(=O)OCC(=O)NCc2ccc3c(c2)OCO3)c1CC | 29.1 µM [falling, single point] | –
Cc1ccccc1-c1nsc(SCC(=O)NCc2ccc3c(c2)OCO3)n1 | 6.51 µM [falling, partial curve, poor fit] | –
CC(=O)c1cccc(N/C=C\C(=O)c2ccc(C)cc2)c1 | 32.6 µM [falling, single point] | –
Cc1[nH]c2ccccc2c1/C=C/C(=O)c1ccccc1 | 4.11 µM [falling, single point] | –
Cc1noc(C)c1COc1ccccc1C(=O)N(C)Cc1ccc(C(C)(C)C)cc1 | 29.1 µM [falling, single point] | –
CCOC(=O)C1CCCN(Cc2cc(OC)c(O)c(OC)c2)C1 (stereo unspecified) | 23.1 µM [rising, single point] | –
COc1ccccc1N=c1oc2cc(O)ccc2cc1C(=O)NCC1CCCO1 (stereo unspecified) | 11.2 µM [falling, partial curve, poor fit] | –
CCN(CC)c1ccc(NC(=S)NC(=O)c2cccs2)cc1 | 8.91 µM [rising, partial curve, poor fit] | –
N/C(=N\OC(=O)Cc1ccccc1)c1ccncc1 | 3.16 µM [rising, partial curve, poor fit] | –
COc1ccc(-c2nn(Cc3ccccc3)cc2C(=O)N2CCN(c3ncccn3)CC2)cc1OC | 2.91 µM [rising, single point] | –
Cc1ccc(S(=O)(=O)Oc2ccc(/C=C(/NC(=O)c3ccccc3)C(=O)NCC(=O)O)cc2)cc1 | 39.8 µM [rising, partial curve, poor fit] | –
Nc1nnc(CSCc2ccc(Cl)cc2Cl)s1 | 6.51 µM [rising, partial curve, poor fit] | –
CCc1ccccc1NC(=O)CNC(=O)CCc1nc2sc3c(c2c(=O)[nH]1)CCCC3 | 29.1 µM [falling, single point] | –

Compound | AC50 [1] | AC50 [2]
CCN(CC)S(=O)(=O)c1cccc(C(=O)NC(C(=O)NCCc2ccccn2)C(C)C)c1 (stereo unspecified) | 4.61 µM [rising, full curve, poor fit] | –
COc1ccc(NC(=S)N2CCN(C(c3ccccc3)c3ccccc3)CC2)c(OC)c1 | 12.6 µM [falling, single point] | 12.6 µM [rising, partial curve, poor fit]
O=C(COC(=O)c1ccccc1OC(F)F)Nc1ccc2[nH]c(=O)[nH]c2c1 | 13 µM [rising, partial curve, poor fit] | –
CN(C)C(=O)c1cnc(Sc2ncc(C(F)(F)F)cc2Cl)n1C | 1.03 µM [falling, full curve, poor fit] | –
COc1cc(/C=C2\SC(=Nc3ccccc3)N(Cc3ccco3)C2=O)ccc1OC(C)C(=O)O (stereo unspecified) | 32.6 µM [falling, single point] | –
C=CCNC(=S)NNC(=O)C(CCC(C)C)CC(C)(C)O (stereo unspecified) | 32.6 µM [rising, single point] | –
COc1ccc(OC)c(NC(=O)c2cc3oc4ccccc4c3cc2O)c1 | 1.26 µM [falling, full curve, poor fit] | –
CCC(C(=O)NC1CCCCC1)N(Cc1cccs1)C(=O)CCC(=O)Nc1cc(C)on1 (stereo unspecified) | 35.5 µM [falling, single point] | –
Cc1ccc2c(c1)-n1c(nc3ccc(C)cc3c1=O)C(Cc1ccccc1)NC2=O (stereo unspecified) | 25.9 µM [falling, partial curve, poor fit] | –
CN1CCN(C(=S)NC(=O)c2ccc(-c3ccccc3)cc2)CC1 | 22.4 µM [rising, single point] | 35.5 µM [falling, partial curve, poor fit]
CCOC(=O)Cc1csc(Nc2ccc(Cl)cc2)n1 | 13 µM [rising, partial curve, poor fit] | –
COc1cc([C@@H]2[C@H]3CNCC=C3C(C#N)=C(N)C2(C#N)C#N)ccc1OC(C)C | 1.64 µM [falling, partial curve, poor fit] | –
COc1cc2c(cc1NC(=O)CCCCCN1C(=O)CCC1=O)oc1ccccc12 | 25.9 µM [falling, partial curve] | –
S=C(Nc1ccc(Br)cc1)N1CCn2cccc2C1c1cccnc1 (stereo unspecified) | 3.98 µM [rising, single point] | –
Cc1ccc(NC(=S)N/N=C/c2c(C)[nH]c3ccccc23)cc1 | 12.6 µM [falling, partial curve, poor fit] | –
O=S(=O)(NCCc1ccncc1)c1cc(Br)ccc1F | 4.61 µM [falling, single point] | –
COc1ccc2c(c1)C(=O)N1[C@H]3c4cc(Cl)ccc4OC[C@@H]3[C@H](c3ccccc3)[C@]1(C)C(=O)N2 | 2.91 µM [falling, partial curve] | –
COc1ccccc1N1CCN(C(=O)CSc2ncccc2-c2nc3ccccc3[nH]2)CC1 | 2.91 µM [falling, full curve] | –
COc1ccc(C(=O)O)c(OC)n1 | 20 µM [falling, partial curve, poor fit] | –
CC(C)COc1cccc(C(=O)Nc2ccc(N3CCOCC3)cc2N2CCOCC2)c1 | 6.51 µM [rising, partial curve, poor fit] | –

A draw from above in order of number of heavy atoms, rising:
Compound | AC50 [1] | AC50 [2]
Cc1ccc(NC(=S)N/N=C/c2c(C)[nH]c3ccccc23)cc1 | 12.6 µM [falling, partial curve, poor fit] | –
CC(C)COc1cccc(C(=O)Nc2ccc(N3CCOCC3)cc2N2CCOCC2)c1 | 6.51 µM [rising, partial curve, poor fit] | –
COc1cc(/C=C2\SC(=Nc3ccccc3)N(Cc3ccco3)C2=O)ccc1OC(C)C(=O)O (stereo unspecified) | 32.6 µM [falling, single point] | –
